Results from article PMC3906104.
Results are given in words; binding and its absence hold for the method and conditions named. In cells and extracts the contact can be indirect. Some entries that bind do so weakly or less than the wild type.

Sequences of proteins named here, by UniProt entry; tags and fusion partners are left off. A change or cut given only in a name is not applied to a line headed by its entry. A line that says so, or that is headed by a name, gives the form on record, which may keep a tag or linker.
UniProt P61073: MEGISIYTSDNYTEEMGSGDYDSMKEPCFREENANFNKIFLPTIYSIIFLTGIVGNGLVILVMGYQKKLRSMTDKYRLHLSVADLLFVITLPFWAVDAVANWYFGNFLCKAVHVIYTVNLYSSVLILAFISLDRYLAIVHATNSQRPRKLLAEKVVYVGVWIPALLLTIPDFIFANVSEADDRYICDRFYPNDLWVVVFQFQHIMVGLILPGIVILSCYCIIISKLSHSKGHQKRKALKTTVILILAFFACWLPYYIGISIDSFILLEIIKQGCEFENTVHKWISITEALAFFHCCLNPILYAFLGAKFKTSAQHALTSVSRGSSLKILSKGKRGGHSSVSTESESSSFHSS
FLAG-tagged Q297A/N329A AIP4 mutant (Q96J02-2, form named): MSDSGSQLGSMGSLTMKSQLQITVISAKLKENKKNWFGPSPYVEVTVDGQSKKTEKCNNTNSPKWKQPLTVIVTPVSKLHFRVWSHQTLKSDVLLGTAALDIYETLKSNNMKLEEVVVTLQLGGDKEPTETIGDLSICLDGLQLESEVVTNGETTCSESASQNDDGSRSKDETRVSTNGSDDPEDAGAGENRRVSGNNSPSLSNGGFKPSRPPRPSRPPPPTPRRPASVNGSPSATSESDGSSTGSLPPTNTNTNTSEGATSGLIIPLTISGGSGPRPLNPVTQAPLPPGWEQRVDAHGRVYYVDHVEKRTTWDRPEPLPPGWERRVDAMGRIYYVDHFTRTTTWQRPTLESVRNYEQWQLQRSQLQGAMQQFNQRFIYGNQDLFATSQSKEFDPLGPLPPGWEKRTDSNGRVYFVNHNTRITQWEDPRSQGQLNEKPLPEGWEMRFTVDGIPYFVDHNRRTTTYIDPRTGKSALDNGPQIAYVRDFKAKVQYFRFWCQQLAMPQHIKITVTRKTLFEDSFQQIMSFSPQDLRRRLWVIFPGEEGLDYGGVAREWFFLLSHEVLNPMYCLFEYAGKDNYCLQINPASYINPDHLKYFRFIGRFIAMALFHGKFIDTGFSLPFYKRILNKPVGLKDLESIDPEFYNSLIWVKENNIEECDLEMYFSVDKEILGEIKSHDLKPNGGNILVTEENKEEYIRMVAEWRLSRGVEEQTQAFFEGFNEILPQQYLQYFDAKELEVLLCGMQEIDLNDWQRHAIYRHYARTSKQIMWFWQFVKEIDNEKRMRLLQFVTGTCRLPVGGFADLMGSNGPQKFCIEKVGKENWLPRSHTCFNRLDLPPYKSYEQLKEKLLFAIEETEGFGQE
FLAG-tagged wt AIP4 (Atropin Interacting Protein 4) (Q96J02-2, form named): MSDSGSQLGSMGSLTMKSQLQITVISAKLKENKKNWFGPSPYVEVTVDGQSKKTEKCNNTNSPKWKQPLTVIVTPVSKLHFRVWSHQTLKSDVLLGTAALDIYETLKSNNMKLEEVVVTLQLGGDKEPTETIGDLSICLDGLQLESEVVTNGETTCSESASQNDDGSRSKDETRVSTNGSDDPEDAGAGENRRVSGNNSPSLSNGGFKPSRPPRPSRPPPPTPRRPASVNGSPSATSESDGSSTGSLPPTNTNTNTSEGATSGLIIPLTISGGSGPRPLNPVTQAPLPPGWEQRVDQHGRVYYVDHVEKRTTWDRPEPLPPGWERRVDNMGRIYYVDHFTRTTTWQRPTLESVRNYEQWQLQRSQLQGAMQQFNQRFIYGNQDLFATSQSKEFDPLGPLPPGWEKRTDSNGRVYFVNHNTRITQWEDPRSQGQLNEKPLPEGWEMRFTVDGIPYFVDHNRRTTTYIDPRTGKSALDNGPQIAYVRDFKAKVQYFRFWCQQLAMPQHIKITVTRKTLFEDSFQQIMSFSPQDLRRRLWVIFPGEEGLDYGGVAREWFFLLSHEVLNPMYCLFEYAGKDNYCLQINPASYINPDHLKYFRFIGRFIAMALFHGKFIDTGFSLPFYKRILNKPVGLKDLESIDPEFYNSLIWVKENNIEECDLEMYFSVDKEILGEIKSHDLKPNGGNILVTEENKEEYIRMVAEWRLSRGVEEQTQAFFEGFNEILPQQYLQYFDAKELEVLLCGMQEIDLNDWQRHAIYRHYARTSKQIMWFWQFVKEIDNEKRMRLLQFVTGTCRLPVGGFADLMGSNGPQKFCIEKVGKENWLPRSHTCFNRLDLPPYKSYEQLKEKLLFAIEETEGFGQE

Biological target: 6-His tagged CXCR4 (human) (UniProt P61073)
Assay: pull-down; 6-His tagged CXCR4 recovered on Ni-NTA agarose (6 hours at 4°C) from lysates of Jurkat cells co-transfected with CXCR4-His, GFP, FLAG-wt or mutant AIP4 and Nef or a null plasmid; lysis buffer 20 mM Tris pH 8.0, 150 mM NaCl, 1% Triton X-100; co-precipitated AIP4 detected by blot with anti-FLAG M2; no agonist; the paper calls it a co-precipitation assay

| Substance | binding |
| --- | --- |
| FLAG-tagged Q297A/N329A AIP4 mutant (from UniProt Q96J02-2 1-862) (enzyme) | no binding |
| FLAG-tagged wt AIP4 (Atropin Interacting Protein 4) (from UniProt Q96J02-2 1-862) (enzyme) | binds |
